# Experimental data taken from the supplement of paper PMC4604168 (melanoma cell lines).
# The other results are listed elsewhere or left out. Repeats are few or missing, and single values can be far off.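 Imaging used 1,536-well plates; nuclei positive for cleaved PARP by antibody were divided by total DNA-stained nuclei to yield the apoptosis fraction. Doses for screening kept most cells viable, and cell lines differ markedly in resting and induced cleaved-PARP levels.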
# Tested on: CBRC016 (line from a melanoma biopsy)
# Assay: cleaved PARP positive nuclei fraction relative to DMSO control; melanoma cells; higher = more apoptosis
# Details: library dose: low library concentration; 72 h
row,SMILES,cleaved PARP positive nuclei fraction [%]
1,"N#CC[C@H](C1CCCC1)n1cc(-c2ncnc3[nH]ccc23)cn1 [ruxolitinib] + C[C@@H]1CCN(C(=O)CC#N)C[C@@H]1N(C)c1ncnc2[nH]ccc12 [CP690550] (first compound 1 µM, partner dose 1 µM)",103
2,"COc1cc([C@@H]2c3cc4c(cc3[C@@H](O[C@@H]3O[C@@H]5CO[C@@H](C)O[C@H]5[C@H](O)[C@H]3O)[C@H]3COC(=O)[C@H]23)OCO4)cc(OC)c1O [etoposide] + Cn1cncc1[C@@](N)(c1ccc(Cl)cc1)c1ccc2c(c1)c(-c1cccc(Cl)c1)cc(=O)n2C [tipifarnib] (first compound 0.02 µM, partner dose 0.01 µM)",145
3,"N#CC[C@H](C1CCCC1)n1cc(-c2ncnc3[nH]ccc23)cn1 [ruxolitinib] + Cc1ccc(NC(=O)c2cccc(N(C)C)c2)cc1NC(=O)c1ccc(O)cc1 [ZM336372] (first compound 1 µM, partner dose 2 µM)",170
4,"N#CC[C@H](C1CCCC1)n1cc(-c2ncnc3[nH]ccc23)cn1 [ruxolitinib] + COc1cc2c(Oc3ccc4[nH]c(C)cc4c3F)ncnc2cc1OCCCN1CCCC1 [cediranib] (first compound 1 µM, partner dose 0.4 µM)",121
5,"O=c1[nH]nc(Sc2ncc([N+](=O)[O-])s2)n1-c1ccc2c(c1)OCCO2 + O=C(O)c1ccc(-c2c[nH]c3ncc(-c4ccccc4)cc23)cc1C1CCCC1 [GSK650394] (first compound 0.2 µM, partner dose 0.16 µM)",102
